Experimental data published in PMC10901892 (Scientific Reports, 2024).

Test: GSH adduct formation by ESI-MS
Settings: 10 μM drug, 0.2 mM GSH, 100 mM KPO4 buffer, 1 h at 37 °C

SMILES | adduct formation with GSH
N#CC(C#N)=NNc1ccc(OC(F)(F)F)cc1 [FCCP, carbonyl cyanide p-trifluoromethoxy-phenylhydrazone, reference compound] | form adducts with GSH
CCCCCCCCOc1ccc(NN=C(C#N)C#N)cc1 [NMY1009, (4-octyloxy-phenyl)carbonhydrazonoyl dicyanide] | form adducts with GSH
